# Test results taken from US6436682B1, “Luciferases, fluorescent proteins, nucleic acids encoding the luciferases and fluorescent proteins and the use thereof in diagnostics, high throughput screening and novelty items” (Prolume, Ltd., priority 1998, dated 2002).
# B1: Renilla mulleri GFP: green fluorescent protein of Renilla mulleri, 238 amino acids, SEQ ID No. 16 (protein, listed as Renilla mulleri)
# chain: MSKQILKNTCLQEVMSYKVNLEGIVNNHVFTMEGCGKGNILFGNQLVQIRVTKGAPLPFAFDIVSPAFQYGNRTFTKYPNDISDYFIQSFPAGFMYERTLRYEDGGLVEIRSDINLIEDKFVYRVEYKGSNFPDDGPVMQKTILGIEPSFEAMYMNNGVLVGEVILVYKLNSGKYYSCHMKTLMKSKGVVKEFPSYHFIQHRLEKTYVEDGGFVEQHETAIAQMTSIGKPLGSLHEWV
# modifications: Renilla mulleri Green Fluorescent Protein (GFP)
# Assay: Fluorescence excitation and emission spectra of recombinant GFPs
# Format: physicochemical
molecule,measurement,setting,value
B1,fluorescence excitation maximum,partially purified recombinant protein,~498 nm
same,fluorescence emission maximum,recombinant protein,506 nm
